Experimental data: paper PMC5059474
No constants are given. Whether binding was seen depends on the method and setting. Binding seen in cells or lysates may run through a third protein.

Protein sequences, listed by entry. Tags and fused reporters are not part of them.
UniProt Q12888: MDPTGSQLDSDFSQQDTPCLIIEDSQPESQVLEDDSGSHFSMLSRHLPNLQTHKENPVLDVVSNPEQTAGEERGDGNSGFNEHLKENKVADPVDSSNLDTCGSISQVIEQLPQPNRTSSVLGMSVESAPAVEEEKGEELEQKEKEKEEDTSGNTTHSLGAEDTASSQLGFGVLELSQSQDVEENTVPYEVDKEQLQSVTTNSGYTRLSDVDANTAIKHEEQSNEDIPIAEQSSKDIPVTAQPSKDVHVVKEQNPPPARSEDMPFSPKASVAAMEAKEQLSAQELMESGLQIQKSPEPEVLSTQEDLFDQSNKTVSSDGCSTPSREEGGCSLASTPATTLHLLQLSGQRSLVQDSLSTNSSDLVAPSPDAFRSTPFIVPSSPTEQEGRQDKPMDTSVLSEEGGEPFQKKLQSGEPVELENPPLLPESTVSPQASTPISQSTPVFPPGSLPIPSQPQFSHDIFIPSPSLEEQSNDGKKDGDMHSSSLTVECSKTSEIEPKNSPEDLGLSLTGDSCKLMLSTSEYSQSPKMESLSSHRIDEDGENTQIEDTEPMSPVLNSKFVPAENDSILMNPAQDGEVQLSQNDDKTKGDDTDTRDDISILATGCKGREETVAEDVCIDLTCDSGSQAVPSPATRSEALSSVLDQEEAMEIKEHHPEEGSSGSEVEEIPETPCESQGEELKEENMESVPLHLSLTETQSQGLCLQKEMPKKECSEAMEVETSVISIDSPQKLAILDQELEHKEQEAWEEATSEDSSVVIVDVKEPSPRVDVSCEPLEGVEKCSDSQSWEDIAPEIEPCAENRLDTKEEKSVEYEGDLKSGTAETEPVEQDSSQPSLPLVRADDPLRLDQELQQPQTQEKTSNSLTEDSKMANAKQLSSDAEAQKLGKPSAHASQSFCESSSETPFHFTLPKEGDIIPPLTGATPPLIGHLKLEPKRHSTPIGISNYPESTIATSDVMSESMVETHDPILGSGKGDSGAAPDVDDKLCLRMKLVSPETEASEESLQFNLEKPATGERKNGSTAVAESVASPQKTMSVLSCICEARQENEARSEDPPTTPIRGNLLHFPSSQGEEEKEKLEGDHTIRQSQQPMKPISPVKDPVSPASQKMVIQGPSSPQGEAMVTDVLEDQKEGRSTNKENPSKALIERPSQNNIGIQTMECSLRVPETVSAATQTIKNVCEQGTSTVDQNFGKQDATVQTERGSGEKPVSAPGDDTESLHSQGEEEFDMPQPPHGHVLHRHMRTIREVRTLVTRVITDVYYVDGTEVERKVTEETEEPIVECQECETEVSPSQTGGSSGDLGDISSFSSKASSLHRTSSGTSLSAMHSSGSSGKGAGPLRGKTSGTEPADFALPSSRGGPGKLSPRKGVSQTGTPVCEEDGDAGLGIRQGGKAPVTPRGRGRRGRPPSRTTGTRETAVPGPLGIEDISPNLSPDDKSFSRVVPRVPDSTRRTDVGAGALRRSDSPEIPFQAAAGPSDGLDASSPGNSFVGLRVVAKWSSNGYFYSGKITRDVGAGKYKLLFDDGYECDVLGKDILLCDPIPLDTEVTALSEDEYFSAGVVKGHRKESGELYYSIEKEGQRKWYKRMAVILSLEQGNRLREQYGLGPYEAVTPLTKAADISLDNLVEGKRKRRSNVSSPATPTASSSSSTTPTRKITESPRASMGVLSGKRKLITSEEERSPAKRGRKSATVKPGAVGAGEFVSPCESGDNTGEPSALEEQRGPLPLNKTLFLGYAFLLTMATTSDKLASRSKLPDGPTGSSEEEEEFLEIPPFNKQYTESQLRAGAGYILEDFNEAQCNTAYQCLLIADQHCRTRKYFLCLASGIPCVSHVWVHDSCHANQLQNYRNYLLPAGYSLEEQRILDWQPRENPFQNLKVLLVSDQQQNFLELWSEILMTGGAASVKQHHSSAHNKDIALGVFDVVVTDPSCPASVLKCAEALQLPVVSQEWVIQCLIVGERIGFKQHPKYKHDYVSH

Assays:
Assay in all cases: co-IP; benzonase-treated nuclear extracts of HEK293 cells (mock, Bleo 30 μg/ml 1 h, 10–12 h recovery after Bleo, or IR 5 grey); IP with 2-5 μg antibody to the endogenous bait or control IgG and Protein A/G PLUS agarose; three washes with 20 mM HEPES pH 7.9, 150 mM KCl, 0.25% Triton-X-100; western blot
[1] = molecular target: polynucleotide kinase 3′ phosphatase (human (endogenous in HEK293)) (UniProt Q96T60)
[2] = molecular target: 53BP1 (human (endogenous in HEK293)) (UniProt Q12888)
[3] = molecular target: T1, Lig IV (human (endogenous in HEK293)) (UniProt P49917)
T1 sequence: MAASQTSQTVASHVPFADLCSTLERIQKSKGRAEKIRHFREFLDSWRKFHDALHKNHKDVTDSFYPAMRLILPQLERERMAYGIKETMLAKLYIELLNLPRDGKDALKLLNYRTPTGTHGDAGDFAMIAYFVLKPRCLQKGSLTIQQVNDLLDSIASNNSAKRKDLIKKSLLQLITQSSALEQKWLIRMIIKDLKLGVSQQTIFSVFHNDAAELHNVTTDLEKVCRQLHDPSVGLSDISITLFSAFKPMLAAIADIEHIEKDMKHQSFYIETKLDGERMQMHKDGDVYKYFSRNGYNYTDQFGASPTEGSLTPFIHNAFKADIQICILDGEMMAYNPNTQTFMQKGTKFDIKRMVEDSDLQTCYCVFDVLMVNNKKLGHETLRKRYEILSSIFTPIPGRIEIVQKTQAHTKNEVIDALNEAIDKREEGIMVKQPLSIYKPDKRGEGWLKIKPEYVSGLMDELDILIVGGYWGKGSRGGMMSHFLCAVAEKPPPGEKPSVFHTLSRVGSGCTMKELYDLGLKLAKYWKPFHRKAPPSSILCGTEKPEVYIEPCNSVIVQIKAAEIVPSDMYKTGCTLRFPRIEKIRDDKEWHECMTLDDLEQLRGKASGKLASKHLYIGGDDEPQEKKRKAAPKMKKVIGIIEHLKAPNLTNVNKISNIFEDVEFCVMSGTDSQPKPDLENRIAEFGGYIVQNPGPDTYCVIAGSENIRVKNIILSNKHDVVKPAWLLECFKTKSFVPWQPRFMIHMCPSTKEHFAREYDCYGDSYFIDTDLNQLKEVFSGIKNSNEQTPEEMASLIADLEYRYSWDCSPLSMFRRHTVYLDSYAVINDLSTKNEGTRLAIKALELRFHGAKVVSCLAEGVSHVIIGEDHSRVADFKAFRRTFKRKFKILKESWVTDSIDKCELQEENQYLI

Measured: binding

B1: RAD52 (protein, UniProt P43351 1-418)
chain: MSGTEEAILGGRDSHPAAGGGSVLCFGQCQYTAEEYQAIQKALRQRLGPEYISSRMAGGGQKVCYIEGHRVINLANEMFGYNGWAHSITQQNVDFVDLNNGKFYVGVCAFVRVQLKDGSYHEDVGYGVSEGLKSKALSLEKARKEAVTDGLKRALRSFGNALGNCILDKDYLRSLNKLPRQLPLEVDLTKAKRQDLEPSVEEARYNSCRPNMALGHPQLQQVTSPSRPSHAVIPADQDCSSRSLSSSAVESEATHQRKLRQKQLQQQFRERMEKQQVRVSTPSAEKSEAAPPAPPVTHSTPVTVSEPLLEKDFLAGVTQELIKTLEDNSEKWAVTPDAGDGVVKPSSRADPAQTSDTLALNNQMVTQNRTPHSVCHQKPQAKSGSWDLQTYSADQRTTGNWESHRKSQDMKKRKYDPS
no binding: all assays above
